The values that follow come from the supplement of paper PMC10849652.

Amino acid sequences for entries named in this document (tags omitted). A change or cut given only in a name is not applied to a line headed by its entry.
UniProt P17707: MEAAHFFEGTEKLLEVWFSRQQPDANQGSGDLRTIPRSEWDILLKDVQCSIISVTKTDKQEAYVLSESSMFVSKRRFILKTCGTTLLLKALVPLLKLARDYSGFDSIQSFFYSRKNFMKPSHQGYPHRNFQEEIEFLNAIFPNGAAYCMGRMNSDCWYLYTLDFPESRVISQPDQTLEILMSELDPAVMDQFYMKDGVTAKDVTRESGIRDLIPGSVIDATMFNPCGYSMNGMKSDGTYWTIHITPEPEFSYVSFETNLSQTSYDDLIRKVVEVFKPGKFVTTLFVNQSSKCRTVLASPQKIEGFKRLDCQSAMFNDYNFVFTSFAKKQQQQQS
UniProt P13716: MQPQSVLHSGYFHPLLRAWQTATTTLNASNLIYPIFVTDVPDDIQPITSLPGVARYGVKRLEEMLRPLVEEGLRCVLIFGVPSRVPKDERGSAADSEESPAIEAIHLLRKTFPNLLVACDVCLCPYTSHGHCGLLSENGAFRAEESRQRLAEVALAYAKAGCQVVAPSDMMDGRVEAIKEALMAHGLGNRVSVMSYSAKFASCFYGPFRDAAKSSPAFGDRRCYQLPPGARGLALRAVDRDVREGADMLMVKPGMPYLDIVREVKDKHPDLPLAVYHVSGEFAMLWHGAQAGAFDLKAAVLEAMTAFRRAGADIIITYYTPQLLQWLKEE
UniProt O75179: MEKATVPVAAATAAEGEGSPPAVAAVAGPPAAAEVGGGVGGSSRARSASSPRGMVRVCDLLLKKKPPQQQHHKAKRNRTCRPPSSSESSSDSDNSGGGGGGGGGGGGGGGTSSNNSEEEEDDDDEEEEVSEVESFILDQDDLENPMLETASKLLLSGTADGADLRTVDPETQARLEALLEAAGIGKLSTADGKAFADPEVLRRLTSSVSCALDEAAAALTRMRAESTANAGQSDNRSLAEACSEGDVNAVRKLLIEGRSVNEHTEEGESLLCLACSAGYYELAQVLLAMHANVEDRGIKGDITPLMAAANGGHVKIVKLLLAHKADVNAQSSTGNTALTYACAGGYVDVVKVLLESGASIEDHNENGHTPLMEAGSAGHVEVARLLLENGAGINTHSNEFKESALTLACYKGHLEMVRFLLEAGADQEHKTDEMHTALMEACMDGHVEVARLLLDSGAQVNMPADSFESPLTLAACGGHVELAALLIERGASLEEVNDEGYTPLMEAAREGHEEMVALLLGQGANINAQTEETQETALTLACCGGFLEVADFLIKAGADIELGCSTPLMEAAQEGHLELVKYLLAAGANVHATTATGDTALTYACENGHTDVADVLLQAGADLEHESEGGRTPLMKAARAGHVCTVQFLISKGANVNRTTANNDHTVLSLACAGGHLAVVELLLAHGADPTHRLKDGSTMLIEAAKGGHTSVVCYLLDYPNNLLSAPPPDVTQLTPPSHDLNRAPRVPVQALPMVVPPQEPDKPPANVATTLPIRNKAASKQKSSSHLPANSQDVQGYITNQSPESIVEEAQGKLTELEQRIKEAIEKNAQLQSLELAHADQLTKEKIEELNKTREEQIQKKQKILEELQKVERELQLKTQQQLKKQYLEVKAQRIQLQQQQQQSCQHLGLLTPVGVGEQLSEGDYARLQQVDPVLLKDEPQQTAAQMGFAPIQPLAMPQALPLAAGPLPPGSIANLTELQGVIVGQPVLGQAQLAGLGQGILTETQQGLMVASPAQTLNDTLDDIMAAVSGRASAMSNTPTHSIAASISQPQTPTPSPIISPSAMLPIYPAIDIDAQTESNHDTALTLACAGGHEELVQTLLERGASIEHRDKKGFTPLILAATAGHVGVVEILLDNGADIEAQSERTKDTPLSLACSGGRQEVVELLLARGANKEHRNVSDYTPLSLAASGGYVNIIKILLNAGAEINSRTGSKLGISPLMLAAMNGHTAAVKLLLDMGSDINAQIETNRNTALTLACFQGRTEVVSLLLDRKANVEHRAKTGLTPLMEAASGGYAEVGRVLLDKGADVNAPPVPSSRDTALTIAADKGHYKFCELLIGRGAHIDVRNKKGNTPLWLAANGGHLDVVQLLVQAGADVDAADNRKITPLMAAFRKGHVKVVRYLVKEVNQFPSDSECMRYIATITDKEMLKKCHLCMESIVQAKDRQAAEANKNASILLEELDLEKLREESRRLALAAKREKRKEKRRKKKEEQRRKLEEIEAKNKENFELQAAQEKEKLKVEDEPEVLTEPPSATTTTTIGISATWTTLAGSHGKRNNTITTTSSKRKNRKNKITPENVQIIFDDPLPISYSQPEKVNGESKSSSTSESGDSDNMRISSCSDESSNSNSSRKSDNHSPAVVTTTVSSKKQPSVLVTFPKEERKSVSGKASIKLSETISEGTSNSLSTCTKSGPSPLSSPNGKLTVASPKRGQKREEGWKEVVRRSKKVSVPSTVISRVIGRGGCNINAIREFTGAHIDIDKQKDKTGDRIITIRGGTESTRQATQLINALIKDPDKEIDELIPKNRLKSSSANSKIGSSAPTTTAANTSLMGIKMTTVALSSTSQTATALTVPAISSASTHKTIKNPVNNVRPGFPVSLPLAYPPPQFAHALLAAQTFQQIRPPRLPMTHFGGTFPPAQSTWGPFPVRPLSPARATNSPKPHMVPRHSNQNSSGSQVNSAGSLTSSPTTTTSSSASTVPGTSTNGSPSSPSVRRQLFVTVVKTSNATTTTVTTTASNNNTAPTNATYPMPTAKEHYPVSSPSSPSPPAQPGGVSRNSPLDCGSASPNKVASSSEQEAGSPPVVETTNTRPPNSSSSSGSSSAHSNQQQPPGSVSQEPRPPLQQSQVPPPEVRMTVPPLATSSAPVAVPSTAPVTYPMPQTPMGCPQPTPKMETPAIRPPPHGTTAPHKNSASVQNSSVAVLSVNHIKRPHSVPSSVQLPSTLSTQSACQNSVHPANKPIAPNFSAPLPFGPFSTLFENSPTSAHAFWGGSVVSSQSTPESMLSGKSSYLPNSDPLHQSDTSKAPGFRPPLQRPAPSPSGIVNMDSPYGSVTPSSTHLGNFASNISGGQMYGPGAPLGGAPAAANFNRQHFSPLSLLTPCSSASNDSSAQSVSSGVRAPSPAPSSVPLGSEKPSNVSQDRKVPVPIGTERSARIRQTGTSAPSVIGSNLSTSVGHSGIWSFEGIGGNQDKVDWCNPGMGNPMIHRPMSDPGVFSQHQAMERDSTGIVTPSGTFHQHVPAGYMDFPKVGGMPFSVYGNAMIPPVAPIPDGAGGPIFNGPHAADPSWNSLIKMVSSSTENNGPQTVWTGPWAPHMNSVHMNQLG
UniProt P63010: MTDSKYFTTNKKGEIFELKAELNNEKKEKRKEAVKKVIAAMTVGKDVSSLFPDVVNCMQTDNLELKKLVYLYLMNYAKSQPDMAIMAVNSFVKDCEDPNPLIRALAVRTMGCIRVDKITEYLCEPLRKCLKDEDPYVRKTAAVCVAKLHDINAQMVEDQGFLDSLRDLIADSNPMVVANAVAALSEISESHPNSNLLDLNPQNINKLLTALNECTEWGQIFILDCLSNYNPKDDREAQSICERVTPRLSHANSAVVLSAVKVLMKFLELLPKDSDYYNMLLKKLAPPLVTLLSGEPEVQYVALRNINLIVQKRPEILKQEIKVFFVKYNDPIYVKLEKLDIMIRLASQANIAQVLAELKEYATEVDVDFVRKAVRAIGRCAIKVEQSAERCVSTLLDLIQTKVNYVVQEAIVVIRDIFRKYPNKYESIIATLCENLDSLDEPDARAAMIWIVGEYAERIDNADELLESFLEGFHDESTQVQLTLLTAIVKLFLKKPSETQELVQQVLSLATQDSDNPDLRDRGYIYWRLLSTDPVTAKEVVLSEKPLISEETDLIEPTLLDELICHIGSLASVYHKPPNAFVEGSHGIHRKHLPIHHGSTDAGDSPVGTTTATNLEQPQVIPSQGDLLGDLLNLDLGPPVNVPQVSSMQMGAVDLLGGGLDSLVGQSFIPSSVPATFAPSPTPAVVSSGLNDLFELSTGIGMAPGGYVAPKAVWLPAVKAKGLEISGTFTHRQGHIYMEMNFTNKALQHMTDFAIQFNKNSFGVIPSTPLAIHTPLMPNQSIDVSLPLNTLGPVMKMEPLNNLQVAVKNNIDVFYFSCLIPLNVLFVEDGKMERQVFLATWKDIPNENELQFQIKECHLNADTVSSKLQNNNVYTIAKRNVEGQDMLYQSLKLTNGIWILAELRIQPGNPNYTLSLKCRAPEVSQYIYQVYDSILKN
UniProt Q9Y303: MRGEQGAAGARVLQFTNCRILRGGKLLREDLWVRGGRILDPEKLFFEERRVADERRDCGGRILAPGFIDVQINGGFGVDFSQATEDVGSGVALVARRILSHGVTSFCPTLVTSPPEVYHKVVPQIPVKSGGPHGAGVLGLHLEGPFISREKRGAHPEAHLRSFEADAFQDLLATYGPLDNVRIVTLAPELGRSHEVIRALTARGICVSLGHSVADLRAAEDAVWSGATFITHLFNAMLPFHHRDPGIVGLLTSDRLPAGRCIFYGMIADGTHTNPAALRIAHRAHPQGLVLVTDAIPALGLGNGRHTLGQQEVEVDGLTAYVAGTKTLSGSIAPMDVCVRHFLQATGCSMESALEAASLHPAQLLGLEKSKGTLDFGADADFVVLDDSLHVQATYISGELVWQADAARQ
UniProt P04083: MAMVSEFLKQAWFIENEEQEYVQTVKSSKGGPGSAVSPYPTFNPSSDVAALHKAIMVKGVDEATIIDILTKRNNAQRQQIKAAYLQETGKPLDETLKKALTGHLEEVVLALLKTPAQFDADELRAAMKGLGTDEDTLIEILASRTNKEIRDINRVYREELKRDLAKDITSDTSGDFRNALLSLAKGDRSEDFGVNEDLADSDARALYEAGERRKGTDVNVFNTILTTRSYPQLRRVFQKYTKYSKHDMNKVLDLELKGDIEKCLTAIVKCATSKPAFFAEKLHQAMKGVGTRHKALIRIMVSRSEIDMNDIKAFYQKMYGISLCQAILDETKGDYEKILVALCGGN
UniProt O00203: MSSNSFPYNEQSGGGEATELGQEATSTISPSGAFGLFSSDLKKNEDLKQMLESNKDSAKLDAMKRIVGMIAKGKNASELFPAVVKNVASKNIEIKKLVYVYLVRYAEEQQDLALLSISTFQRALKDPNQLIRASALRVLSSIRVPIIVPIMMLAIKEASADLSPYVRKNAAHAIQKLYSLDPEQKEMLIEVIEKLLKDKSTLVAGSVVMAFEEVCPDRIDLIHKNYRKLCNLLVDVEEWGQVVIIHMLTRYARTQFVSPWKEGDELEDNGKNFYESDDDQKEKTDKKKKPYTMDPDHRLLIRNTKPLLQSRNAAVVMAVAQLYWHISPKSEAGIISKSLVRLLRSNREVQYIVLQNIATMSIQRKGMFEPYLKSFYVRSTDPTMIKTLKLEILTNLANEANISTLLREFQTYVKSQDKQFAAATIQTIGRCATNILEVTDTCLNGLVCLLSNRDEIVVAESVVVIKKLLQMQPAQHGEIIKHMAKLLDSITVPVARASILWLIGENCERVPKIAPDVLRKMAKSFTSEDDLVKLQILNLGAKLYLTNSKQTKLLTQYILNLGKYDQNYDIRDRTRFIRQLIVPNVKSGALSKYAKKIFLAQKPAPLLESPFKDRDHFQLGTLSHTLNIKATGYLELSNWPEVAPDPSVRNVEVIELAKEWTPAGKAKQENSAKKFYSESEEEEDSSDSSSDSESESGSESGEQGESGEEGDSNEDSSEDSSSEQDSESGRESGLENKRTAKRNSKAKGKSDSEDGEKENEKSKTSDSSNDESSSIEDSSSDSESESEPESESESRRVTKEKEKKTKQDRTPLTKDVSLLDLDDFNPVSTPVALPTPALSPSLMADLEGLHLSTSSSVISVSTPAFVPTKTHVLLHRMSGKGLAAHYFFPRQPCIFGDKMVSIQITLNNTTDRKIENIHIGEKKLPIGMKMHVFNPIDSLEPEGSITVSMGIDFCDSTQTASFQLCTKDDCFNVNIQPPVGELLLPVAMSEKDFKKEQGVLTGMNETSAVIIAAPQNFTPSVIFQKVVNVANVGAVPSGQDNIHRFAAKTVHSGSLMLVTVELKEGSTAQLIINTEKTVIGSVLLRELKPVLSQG
UniProt P51649: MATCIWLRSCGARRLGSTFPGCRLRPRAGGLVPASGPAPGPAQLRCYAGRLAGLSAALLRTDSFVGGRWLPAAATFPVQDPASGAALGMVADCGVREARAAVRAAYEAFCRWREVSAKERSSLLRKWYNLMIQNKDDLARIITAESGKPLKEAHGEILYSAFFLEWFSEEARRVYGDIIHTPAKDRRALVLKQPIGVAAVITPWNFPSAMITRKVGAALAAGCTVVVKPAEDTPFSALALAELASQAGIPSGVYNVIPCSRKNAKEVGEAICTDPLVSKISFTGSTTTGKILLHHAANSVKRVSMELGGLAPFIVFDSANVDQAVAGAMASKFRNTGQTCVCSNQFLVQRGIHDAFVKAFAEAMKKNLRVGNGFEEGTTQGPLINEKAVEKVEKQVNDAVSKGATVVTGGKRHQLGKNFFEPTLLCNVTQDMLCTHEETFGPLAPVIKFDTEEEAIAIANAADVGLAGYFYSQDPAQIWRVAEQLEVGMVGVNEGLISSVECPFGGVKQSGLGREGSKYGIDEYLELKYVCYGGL

This is one part of the list.

What all share (assay): log2 fold change, soluble protein after heating vs DMSO (PISA); higher = thermal stabilisation; K562 lysate, 10 uM; active = over 0.2 and 3.5 SD of the protein, either way, in both replicates (recomputed)
Compound in experiment [1]: C1=CC=C(C=C1)[C@H](COC2=CC3=C(C=C2)NC(=O)N3)NC(=O)C4=CC=CN(C4=O)CC5=CC(=C(C=C5)F)F
An outline of the steps: (§1)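 Values give the log-two fold change in thermal stability against solvent controls, from duplicates. Crude K562 extract at 1 mg/mL protein, made by dounce homogenisation in PBS pH 7.4 with 1 mM MgCl2, was treated with 10 μM compound for 30 min. After 3 min heating across 48°C-58°C, aliquots were pooled, adjusted to 0.5% NP-40 at 4°C and centrifuged at 21,000xg for 90 min. The supernatant was measured by TMTpro 16plex LC-MS/MS with channel sums equalised.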

Compound in experiment [2]: CC1=C(SC2=C1C(=N[C@H](C3=NN=C(N32)C)CC(=O)N)C4=CC=C(C=C4)Cl)C
The gist of the method:
as §1

Compound in experiment [3]: CC1=C2C(=CC=C1)N=C(N(C2=O)C3=CC=CC=C3C)CN4C=NC5=C(N=CN=C54)N
An outline of the steps:
as §1

Compound in experiment [4]: Cc1sc2c(c1C)C(c1ccc(Cl)cc1)=N[C@@H](CC(=O)OC(C)(C)C)c1nnc(C)n1-2
The gist of the method:
as §1

Compound in experiment [5]: c1ccc([C@@H]2C[C@H]2NC2CCNCC2)cc1
The gist of the method: as §1

ALKBH5 (UniProt Q6P6C2): the log2 fold change was inactive: -0.001 in experiment [1]; inactive: 0.001 in experiment [2]; inactive: 0.04 in experiment [3]; inactive: 0.06 in experiment [4]; inactive: -0.08 in experiment [5].

Take AMD1 (UniProt P17707): the log2 fold change in experiment [1] was inactive: -0.027; in experiment [2], inactive: 0.01; in experiment [3], inactive: -0.017; in experiment [4] it was inactive: 0.005; in experiment [5], inactive: -0.019.

For the target ALDH1A2 (UniProt O94788), the log2 fold change is inactive: 0.008 in experiment [1]; inactive: -0.012 in experiment [2]; inactive: -0.024 in experiment [3]; inactive: -0.019 in experiment [4]; inactive: 0.009 in experiment [5].

For ANKS3 (UniProt Q6ZW76), the log2 fold change in experiment [1] is inactive: 0.165; in experiment [2], inactive: -0.17; in experiment [3], inactive: 0.007; in experiment [4], inactive: -0.23; in experiment [5], inactive: -0.054.

Consider AP3M1 (UniProt Q9Y2T2), for which the log2 fold change was inactive: 0.006 in experiment [1]; inactive: 0.008 in experiment [2]; inactive: 0 in experiment [3]; inactive: 0.02 in experiment [4]; inactive: 0 in experiment [5].

As to AP1M1 (UniProt Q9BXS5), the log2 fold change in experiment [1] is inactive: -0.007; in experiment [2], inactive: -0.005; in experiment [3] it was inactive: -0.014; in experiment [4], inactive: -0.031; in experiment [5], inactive: -0.018.

For ALAD (UniProt P13716), the log2 fold change in experiment [1] was inactive: 0.043; in experiment [2] it was inactive: -0.016; in experiment [3] it was inactive: 0.024; in experiment [4] it was inactive: -0.042; in experiment [5] it was inactive: -0.028.

As for ANKRD13C (UniProt Q8N6S4), the log2 fold change was inactive: -0.218 in experiment [1] and inactive: 0.172 in experiment [2].

For the target ANKRD17 (UniProt O75179), the log2 fold change in experiment [1] is inactive: -0.037; in experiment [2] it was inactive: -0.005; in experiment [3], inactive: 0.028; in experiment [4], inactive: 0.022; in experiment [5], inactive: -0.014.

With ANGEL2 (UniProt Q5VTE6), the log2 fold change in experiment [1] was inactive: 0.101; in experiment [2] it was inactive: 0.02; in experiment [3] it was inactive: 0.088; in experiment [4] it was inactive: -0.001; in experiment [5] it was inactive: -0.029.

ANXA11 (UniProt P50995): the log2 fold change is active: 0.23 in experiment [1]; inactive: 0.028 in experiment [2]; inactive: 0.015 in experiment [3]; inactive: 0.015 in experiment [4]; inactive: 0.002 in experiment [5].

Regarding ANAPC7 (UniProt Q9UJX3), the log2 fold change in experiment [1] was inactive: -0.008; in experiment [2], inactive: -0.003; in experiment [3], inactive: -0.002; in experiment [4] it was inactive: 0.023; in experiment [5], inactive: 0.048.

In the case of AP2B1 isoform 2 (UniProt P63010), the log2 fold change is inactive: -0.008 in experiment [1]; inactive: -0.018 in experiment [2]; inactive: 0.001 in experiment [3]; inactive: 0.012 in experiment [4]; inactive: -0.001 in experiment [5].

In the case of ANP32B (UniProt Q92688), the log2 fold change in experiment [1] is inactive: -0.013; in experiment [2], inactive: 0.014; in experiment [3], inactive: -0.002; in experiment [4], inactive: -0.015; in experiment [5], inactive: -0.025.

Consider ALG1 (UniProt Q9BT22), for which the log2 fold change is inactive: -0.03 in experiment [1]; inactive: -0.026 in experiment [2]; inactive: 0.076 in experiment [3]; inactive: 0.003 in experiment [4]; inactive: 0.175 in experiment [5].

In the case of AMDHD2 isoform 3 (UniProt Q9Y303), the log2 fold change was inactive: 0.049 in experiment [1]; inactive: 0.016 in experiment [2]; inactive: 0.031 in experiment [3]; inactive: 0.037 in experiment [4]; inactive: -0.043 in experiment [5].

Take AKT1S1 isoform 3 (UniProt Q96B36): the log2 fold change in experiment [1] was inactive: 0; in experiment [2] it was inactive: 0.027; in experiment [3], inactive: 0.062; in experiment [4], inactive: 0.009; in experiment [5], inactive: -0.054.

Take ANPEP (UniProt P15144): the log2 fold change in experiment [1] is inactive: 0.017; in experiment [2], inactive: 0.02; in experiment [3], inactive: -0.04; in experiment [4], inactive: -0.045; in experiment [5], inactive: -0.106.

ALYREF (UniProt Q86V81): the log2 fold change is inactive: -0.022 in experiment [1]; inactive: -0.001 in experiment [2]; inactive: -0.04 in experiment [3]; inactive: -0.048 in experiment [4]; inactive: 0.079 in experiment [5].

As for AP3S1 (UniProt Q92572), the log2 fold change in experiment [1] is inactive: -0.013; in experiment [2], inactive: -0.037; in experiment [3], inactive: -0.072; in experiment [4], inactive: 0.016; in experiment [5], inactive: -0.001.

On to ANKRD54 (UniProt Q6NXT1), for which the log2 fold change is inactive: 0.011 in experiment [1]; inactive: -0.04 in experiment [2]; inactive: 0.038 in experiment [3]; inactive: -0.042 in experiment [4]; inactive: -0.024 in experiment [5].

For ANXA1 (UniProt P04083), the log2 fold change was inactive: -0.011 in experiment [1]; inactive: 0.005 in experiment [2]; inactive: -0.01 in experiment [3]; inactive: -0.019 in experiment [4]; inactive: -0.005 in experiment [5].

Turning to ANKRD13D isoform 3 (UniProt Q6ZTN6), the log2 fold change in experiment [1] is inactive: -0.125; in experiment [2] it was inactive: 0.064; in experiment [3], inactive: -0.183; in experiment [4], inactive: 0.045; in experiment [5], inactive: 0.004.

For AP3B1 (UniProt O00203), the log2 fold change in experiment [1] was inactive: 0.031; in experiment [2], inactive: 0.006; in experiment [3] it was inactive: -0.006; in experiment [4], inactive: 0.048; in experiment [5] it was inactive: 0.035.

Regarding ALDH5A1 isoform 2 (UniProt P51649), the log2 fold change is inactive: -0.029 in experiment [1]; inactive: -0.018 in experiment [2]; inactive: -0.017 in experiment [3]; inactive: 0.004 in experiment [4]; inactive: 0.075 in experiment [5].
